No constants are given. Whether binding was seen depends on the method and setting. In cells and extracts the contact can be indirect. Some entries that bind do so weakly or less than the wild type.

Protein sequences, listed by entry. Tags and fused reporters are not part of them.
UniProt Q61056: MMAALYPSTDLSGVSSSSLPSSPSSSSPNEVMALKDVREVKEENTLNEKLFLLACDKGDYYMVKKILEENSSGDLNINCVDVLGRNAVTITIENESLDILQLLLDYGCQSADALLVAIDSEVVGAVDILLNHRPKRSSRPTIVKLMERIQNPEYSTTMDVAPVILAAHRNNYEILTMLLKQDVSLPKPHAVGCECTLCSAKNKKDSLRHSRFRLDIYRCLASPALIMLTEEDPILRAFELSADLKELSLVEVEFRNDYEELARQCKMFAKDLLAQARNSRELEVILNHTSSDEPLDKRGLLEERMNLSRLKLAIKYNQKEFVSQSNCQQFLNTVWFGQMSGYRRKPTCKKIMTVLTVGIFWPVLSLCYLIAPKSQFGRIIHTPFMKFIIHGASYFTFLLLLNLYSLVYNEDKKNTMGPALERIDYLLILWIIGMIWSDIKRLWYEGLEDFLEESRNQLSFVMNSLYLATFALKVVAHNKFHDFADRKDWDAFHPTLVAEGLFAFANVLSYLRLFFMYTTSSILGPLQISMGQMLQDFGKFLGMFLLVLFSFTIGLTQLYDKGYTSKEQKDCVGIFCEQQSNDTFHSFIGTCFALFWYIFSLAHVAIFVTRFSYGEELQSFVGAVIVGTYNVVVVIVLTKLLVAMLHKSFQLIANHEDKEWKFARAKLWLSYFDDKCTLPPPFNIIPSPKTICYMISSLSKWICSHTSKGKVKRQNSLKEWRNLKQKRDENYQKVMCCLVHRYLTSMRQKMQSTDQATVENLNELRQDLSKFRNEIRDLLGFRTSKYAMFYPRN
UniProt P11881: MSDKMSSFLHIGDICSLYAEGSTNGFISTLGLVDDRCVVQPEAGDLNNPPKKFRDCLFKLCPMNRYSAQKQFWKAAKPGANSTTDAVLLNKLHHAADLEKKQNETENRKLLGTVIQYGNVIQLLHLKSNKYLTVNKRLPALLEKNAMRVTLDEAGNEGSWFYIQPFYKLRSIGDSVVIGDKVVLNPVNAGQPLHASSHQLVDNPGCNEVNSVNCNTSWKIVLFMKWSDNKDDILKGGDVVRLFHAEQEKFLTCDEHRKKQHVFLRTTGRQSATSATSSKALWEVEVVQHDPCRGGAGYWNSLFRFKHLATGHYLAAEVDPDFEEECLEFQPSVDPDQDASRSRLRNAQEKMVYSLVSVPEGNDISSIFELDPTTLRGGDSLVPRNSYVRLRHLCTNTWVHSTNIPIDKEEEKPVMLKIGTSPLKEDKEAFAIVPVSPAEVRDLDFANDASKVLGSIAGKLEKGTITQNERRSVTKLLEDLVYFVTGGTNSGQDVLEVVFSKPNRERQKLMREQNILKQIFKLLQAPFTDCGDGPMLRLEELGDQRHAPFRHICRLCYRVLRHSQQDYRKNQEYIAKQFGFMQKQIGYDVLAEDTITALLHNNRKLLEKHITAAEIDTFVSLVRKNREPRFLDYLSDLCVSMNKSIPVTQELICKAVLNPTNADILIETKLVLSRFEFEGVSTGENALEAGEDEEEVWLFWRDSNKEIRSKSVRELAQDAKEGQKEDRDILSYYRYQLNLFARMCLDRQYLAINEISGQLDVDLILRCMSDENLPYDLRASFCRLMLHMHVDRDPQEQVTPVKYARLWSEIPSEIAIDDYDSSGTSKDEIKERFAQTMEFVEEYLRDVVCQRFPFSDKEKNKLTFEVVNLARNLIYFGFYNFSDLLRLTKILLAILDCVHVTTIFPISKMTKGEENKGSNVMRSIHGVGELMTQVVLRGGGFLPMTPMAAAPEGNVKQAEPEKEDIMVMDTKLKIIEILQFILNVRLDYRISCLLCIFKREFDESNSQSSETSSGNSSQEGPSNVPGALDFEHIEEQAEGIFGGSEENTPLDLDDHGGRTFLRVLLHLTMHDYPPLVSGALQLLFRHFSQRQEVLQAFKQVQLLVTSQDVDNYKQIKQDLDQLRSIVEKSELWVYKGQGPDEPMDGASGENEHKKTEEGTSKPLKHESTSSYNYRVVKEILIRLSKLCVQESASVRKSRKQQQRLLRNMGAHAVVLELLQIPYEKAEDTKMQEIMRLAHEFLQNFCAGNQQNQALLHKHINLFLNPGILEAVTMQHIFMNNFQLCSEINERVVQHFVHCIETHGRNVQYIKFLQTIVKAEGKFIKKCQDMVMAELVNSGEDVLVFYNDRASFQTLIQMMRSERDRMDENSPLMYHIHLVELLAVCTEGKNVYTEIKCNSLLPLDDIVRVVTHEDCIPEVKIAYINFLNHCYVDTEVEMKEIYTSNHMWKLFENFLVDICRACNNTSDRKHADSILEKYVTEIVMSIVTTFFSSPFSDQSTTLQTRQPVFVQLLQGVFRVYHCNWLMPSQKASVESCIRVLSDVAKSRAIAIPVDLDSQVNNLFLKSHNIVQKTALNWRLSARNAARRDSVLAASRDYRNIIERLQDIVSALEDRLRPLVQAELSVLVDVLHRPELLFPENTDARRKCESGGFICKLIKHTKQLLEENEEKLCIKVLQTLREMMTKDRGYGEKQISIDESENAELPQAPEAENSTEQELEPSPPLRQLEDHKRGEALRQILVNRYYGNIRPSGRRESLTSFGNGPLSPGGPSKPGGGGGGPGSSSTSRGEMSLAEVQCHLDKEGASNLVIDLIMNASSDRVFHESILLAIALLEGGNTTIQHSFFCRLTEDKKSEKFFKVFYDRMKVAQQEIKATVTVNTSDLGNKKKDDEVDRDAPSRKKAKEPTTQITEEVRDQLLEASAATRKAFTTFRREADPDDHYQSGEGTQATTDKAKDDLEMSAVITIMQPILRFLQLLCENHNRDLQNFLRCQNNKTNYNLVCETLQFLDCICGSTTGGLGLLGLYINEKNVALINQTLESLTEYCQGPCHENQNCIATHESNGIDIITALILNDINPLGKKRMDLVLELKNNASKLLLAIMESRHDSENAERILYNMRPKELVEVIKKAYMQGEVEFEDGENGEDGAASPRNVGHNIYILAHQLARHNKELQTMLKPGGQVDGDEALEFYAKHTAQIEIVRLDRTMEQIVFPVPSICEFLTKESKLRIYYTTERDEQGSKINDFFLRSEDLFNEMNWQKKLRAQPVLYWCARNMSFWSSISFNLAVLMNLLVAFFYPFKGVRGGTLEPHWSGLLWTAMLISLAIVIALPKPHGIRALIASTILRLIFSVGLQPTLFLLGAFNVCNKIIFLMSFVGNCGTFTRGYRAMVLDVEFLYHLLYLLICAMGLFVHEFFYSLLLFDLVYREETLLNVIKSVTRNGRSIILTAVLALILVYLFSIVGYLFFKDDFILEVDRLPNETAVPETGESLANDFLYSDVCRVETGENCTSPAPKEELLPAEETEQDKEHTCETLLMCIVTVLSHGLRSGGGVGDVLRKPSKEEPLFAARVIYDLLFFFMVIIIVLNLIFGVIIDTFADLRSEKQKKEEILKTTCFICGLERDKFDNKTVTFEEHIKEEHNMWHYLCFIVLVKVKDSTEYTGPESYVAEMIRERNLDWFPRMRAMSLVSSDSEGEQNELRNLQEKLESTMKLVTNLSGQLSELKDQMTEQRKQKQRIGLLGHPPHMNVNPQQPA

This note sets out measurements from publication PMC9718841.

For test [1], the target named is transient receptor potential canonical channel 1 (endogenous, mouse) (mouse (endogenous in heart and cardiomyocytes)) (UniProt Q61056). The experiment in a line: co-IP; endogenous proteins in lysates of LPS-stimulated neonatal mouse cardiomyocytes; pretreatments: CALP1 (20 μM), SKF96365 (concentration series).
For test [2], the target named is T1, transient receptor potential canonical channel 6 (endogenous, mouse) (mouse (endogenous in heart and cardiomyocytes)) (UniProt Q61143).
T1 sequence: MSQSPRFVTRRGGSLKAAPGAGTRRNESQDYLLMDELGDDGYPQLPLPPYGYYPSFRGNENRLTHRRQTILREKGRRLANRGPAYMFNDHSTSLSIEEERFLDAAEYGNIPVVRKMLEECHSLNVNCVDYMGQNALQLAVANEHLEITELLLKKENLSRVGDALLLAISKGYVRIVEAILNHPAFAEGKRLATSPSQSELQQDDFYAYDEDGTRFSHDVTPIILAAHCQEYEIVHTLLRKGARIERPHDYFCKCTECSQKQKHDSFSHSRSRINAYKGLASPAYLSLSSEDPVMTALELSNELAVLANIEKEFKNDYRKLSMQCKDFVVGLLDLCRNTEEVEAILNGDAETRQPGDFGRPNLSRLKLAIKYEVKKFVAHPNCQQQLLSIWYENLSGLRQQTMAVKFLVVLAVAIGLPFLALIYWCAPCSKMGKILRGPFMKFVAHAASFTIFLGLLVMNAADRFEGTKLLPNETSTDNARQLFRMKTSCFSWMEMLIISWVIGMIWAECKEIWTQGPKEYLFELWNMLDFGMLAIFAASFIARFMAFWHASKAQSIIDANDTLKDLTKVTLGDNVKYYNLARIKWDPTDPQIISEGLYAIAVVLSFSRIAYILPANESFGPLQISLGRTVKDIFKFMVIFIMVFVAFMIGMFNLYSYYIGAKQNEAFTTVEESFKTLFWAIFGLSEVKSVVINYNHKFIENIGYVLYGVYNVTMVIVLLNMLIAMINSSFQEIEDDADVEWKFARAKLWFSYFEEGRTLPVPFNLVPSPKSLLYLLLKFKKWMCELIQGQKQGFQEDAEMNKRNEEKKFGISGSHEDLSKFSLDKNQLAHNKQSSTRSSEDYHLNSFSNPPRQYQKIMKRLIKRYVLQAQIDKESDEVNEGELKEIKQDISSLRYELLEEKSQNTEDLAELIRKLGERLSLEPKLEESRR
The experiment in a line: proximity ligation; Duolink PLA in fixed neonatal mouse cardiomyocytes, with or without LPS; WT cells for TRPC1/TRPC6 with IP3R1, Trpc1 and Trpc6 knockout cells for CaM with TLR4 or IP3R1.

For test [3], the target named is transient receptor potential canonical channel 1 (endogenous, mouse) (mouse (endogenous in heart and cardiomyocytes)) (UniProt Q61056). Described as above.
In test [4] the target is T1, transient receptor potential canonical channel 6 (endogenous, mouse) (mouse (endogenous in heart and cardiomyocytes)). Description: co-IP; endogenous proteins in mouse heart (ventricle) lysates, 1000 μg total protein, antibody on Protein A/G sepharose, 4 °C overnight, western blot; WT, Trpc1−/− and Trpc6−/− mice, 4 h after LPS or vehicle. Background: In western blotting, separated proteins are transferred to a membrane and probed.

Test [5] deals with transient receptor potential canonical channel 1 (endogenous, mouse) (mouse (endogenous in heart and cardiomyocytes)) (UniProt Q61056). The description is as above.
Test [6] concerns the target T1, transient receptor potential canonical channel 6 (endogenous, mouse) (mouse (endogenous in heart and cardiomyocytes)). Description: co-IP; endogenous TRPC1 and TRPC6 in cardiomyocytes, with or without LPS (Supplementary Fig. 10a).

For the substance “IP3 receptor subtype 1 (endogenous, mouse) (from UniProt P11881 1-2749)”, the binding entry in test [1], in test [2], in test [3], in test [4] and in test [5] was “binds” throughout.
As for “transient receptor potential canonical channel 1 (endogenous, mouse) (from UniProt Q61056 1-793)”, the binding result in test [6] is reported as “no binding”.
